These are yes or no findings as the source states them, for the method shown. Binding seen in cells or lysates may run through a third protein. Some entries that bind do so weakly or less than the wild type.
Assays:
[1] = molecular target: Tribbles homolog 3 (TRIB3), endogenous in human breast cancer cells (human (endogenous in MCF7, MDA-MB-231, PDX BCCs)) (UniProt Q96RU7); assay: co-IP; endogenous AKT1 and TRIB3; cells not named
TRIB3-HA (human) = TRIB3-HA (human) (UniProt Q96RU7); assay: co-IP; HEK293T cells co-transfected with AKT1-Myc and TRIB3-HA constructs; cell extracts IP with an anti-HA Ab
[2] = molecular target: AKT1, endogenous in human cells (human (endogenous in HMLE, MCF7, MDA-MB-231, PDX BCCs)) (UniProt P31749); assay: co-IP; HMLE cell extracts IP with an anti-AKT1 Ab, blotted with an anti-FOXO1 Ab, in the presence of the indicated concentration of the TRIB3-GST protein

Amino acid sequences for entries named in this document (tags omitted). A change or cut given only in a name is not applied to a line headed by its entry. Chains listed by the source or under a name are the forms on record and can include a tag or linker.
UniProt Q96RU7: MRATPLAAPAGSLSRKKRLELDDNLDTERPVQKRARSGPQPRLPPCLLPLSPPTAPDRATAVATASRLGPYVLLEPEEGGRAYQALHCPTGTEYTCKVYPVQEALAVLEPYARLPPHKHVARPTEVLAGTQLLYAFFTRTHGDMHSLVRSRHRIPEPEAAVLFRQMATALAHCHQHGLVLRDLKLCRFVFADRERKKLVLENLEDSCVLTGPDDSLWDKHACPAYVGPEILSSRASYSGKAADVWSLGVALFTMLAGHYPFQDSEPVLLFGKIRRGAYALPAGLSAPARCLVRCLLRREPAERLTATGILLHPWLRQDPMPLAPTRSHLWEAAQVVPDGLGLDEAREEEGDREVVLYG
UniProt P31749: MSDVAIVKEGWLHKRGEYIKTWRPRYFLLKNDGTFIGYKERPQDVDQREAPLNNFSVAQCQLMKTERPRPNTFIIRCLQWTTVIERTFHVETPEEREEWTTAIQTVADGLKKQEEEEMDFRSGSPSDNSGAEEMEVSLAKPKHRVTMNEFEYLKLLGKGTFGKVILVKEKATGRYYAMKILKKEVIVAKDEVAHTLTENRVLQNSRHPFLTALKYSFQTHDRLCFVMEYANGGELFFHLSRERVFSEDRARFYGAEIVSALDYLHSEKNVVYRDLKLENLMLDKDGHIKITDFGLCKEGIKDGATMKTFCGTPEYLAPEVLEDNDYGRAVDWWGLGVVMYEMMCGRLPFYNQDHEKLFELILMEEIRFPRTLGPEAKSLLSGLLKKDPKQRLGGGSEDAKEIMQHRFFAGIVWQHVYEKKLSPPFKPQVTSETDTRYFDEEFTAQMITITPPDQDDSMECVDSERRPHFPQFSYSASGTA
AKT1-Myc △WX mutant (P31749, form named): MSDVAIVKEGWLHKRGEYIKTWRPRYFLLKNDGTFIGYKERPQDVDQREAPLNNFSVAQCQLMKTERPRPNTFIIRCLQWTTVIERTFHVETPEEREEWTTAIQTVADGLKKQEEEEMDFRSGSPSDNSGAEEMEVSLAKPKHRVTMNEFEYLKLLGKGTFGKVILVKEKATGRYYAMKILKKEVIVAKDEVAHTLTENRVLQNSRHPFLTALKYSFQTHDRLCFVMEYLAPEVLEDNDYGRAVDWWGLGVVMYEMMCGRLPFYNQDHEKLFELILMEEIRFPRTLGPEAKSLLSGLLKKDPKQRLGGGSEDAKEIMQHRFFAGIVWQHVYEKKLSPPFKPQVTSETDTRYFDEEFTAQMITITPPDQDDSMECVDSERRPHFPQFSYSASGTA
UniProt Q12778: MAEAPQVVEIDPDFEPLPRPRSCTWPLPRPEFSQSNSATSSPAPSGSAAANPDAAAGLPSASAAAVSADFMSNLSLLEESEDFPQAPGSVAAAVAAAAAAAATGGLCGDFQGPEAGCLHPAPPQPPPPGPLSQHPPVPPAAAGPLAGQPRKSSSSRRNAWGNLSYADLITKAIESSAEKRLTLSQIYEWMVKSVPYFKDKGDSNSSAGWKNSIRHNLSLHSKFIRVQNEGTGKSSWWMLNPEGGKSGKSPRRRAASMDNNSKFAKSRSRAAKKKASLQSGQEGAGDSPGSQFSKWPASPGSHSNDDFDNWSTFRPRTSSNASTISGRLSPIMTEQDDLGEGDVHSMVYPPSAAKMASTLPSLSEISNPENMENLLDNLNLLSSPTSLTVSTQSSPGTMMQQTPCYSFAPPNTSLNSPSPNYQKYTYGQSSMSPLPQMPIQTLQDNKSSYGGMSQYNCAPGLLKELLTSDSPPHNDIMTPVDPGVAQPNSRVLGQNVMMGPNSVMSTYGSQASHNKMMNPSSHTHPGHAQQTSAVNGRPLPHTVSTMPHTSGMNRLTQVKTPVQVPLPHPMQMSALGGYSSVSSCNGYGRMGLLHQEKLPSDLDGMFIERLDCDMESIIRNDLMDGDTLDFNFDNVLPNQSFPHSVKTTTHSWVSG

binding (TRIB3-HA (human))	Substance	other results
–	AKT1, endogenous in human cells (from UniProt P31749 1-480)	binding [1]: binds
binds	AKT1-Myc △WX mutant (from UniProt P31749 1-480)	–
binds	AKT1-Myc, full-length (FL amino acids 1–480) (from UniProt P31749 1-480)	–
–	Forkhead box O1 (FOXO1), endogenous in human cells (from UniProt Q12778 1-655)	binding [2]: binds

Source: PMC6915745, “TRIB3 supports breast cancer stemness by suppressing FOXO1 degradation and enhancing SOX2 transcription” (Nature Communications, 2019)
